# According to publication PMC12431657, “Discovery and mechanistic insights of dibenzoylmethane as a broad spectrum inhibitor of coronavirus” (PLOS Pathogens, 2025):
# Where a name gives a salt, the structure may show the parent alone. Read-outs that look alike come from different tables or passages of the source. Hit rate of the full screen: of about 3,300 compounds, about 60 (2%) showed an effect of 50% or more. This is one part of the list.
# Test system: HCoV-OC43
# Parameters: species or system RD; HTS, protection from HCoV-OC43 induced cell death, luminescent cell viability (CellCounting-Lite 2.0), inhibition rate
# Details: 24 h post infection, 1 h compound pre-incubation, 10 µM, inhibitor
Structure (SMILES),OC43 Inhibition rate [%],"OC43 Inhibition rate (OC43 Inhibition rate, 24 h) [%]"
O=c1cc(-c2ccc(O)c(-c3c(O)cc(O)c4c(=O)cc(-c5ccc(O)cc5)oc34)c2)oc2cc(O)cc(O)c12 [Amentoflavone],7,
CC(C(=O)c1ccc(O)cc1O)c1ccc(O)cc1 (stereo not shown) [O-Desmethylangolensin],3.3,
O=C(O)C(=O)O [Oxalic Acid],,-0.7
C1CCN2C[C@@H]3C[C@@H](CN4CCCC[C@@H]34)[C@H]2C1 [(-)-Sparteine],2.9,
COc1ccc2c(OC)c3ccoc3nc2c1OC [Skimmianine],0.3,
COc1ccc(CCC(=O)c2ccc(O)cc2)c(OC)c1 [Loureirin A],2.8,
COc1cc2oc(-c3ccc(O)cc3)cc(=O)c2c(O)c1OC [Cirsimaritin],0,
CC(=O)O[C@H]1C(=O)c2c(O)cc(O)cc2O[C@@H]1c1ccccc1 [Pinobanksin 3-acetate],0.6,
CCCCCCCCCCCCCCCCCCO [1-Hydroxyoctadecane],-3.5,
COc1cc(O)cc(O)c1C(=O)/C=C/c1ccccc1 [Cardamonin],2.4,
COc1cc(C)c2c(=O)c(-c3ccccc3)coc2c1 [5-Methyl-7-methoxyisoflavone],-0.3,
COc1cc2oc(=O)ccc2c(OC)c1CC=C(C)C [Toddaculin],0.5,
CC(C)=C[C@H]1C[C@](C)(O)[C@@H]2[C@H]3CC[C@@H]4[C@@]5(C)CC[C@H](O[C@@H]6OC[C@H](O)[C@H](O[C@@H]7O[C@H](CO[C@@H]8O[C@H](CO)[C@@H](O)[C@H](O)[C@H]8O)[C@@H](O)[C@H](O)[C@H]7O[C@@H]7OC[C@@H](O)[C@H](O)[C@H]7O)[C@H]6O[C@@H]6O[C@@H](C)[C@H](O)[C@@H](O)[C@H]6O)C(C)(C)[C@@H]5CC[C@@]4(C)[C@@]34CO[C@@]2(C4)O1 [Jujuboside A],-0.4,
CC1=C(CC[C@@H](C)CO[C@@H]2O[C@H](CO)[C@@H](O)[C@H](O)[C@H]2O)O[C@H]2C[C@H]3[C@@H]4CC=C5C[C@@H](O[C@@H]6O[C@H](CO)[C@@H](O[C@@H]7O[C@@H](C)[C@H](O)[C@@H](O)[C@H]7O)[C@H](O)[C@H]6O[C@@H]6O[C@@H](C)[C@H](O)[C@@H](O)[C@H]6O)CC[C@]5(C)[C@H]4CC[C@]3(C)[C@@H]12 [Pseudoprotodioscin],-6.7,
CC(=O)O[C@H]1Cc2c(cc3oc(C)cc(=O)c3c2O)OC1(C)C [3'-O-Acetylhamaudol],14.3,
COc1cc2c(cc1OC)-c1cc3ccc4c(c3c(=O)n1CC2)OCO4 [8-Oxoepiberberine],10.1,
CCCCCC(=O)O[C@H](CC(=O)[O-])C[N+](C)(C)C [L-Hexanoylcarnitine],-1,
CC(C)CC1NC(=O)C(Cc2ccc(O)cc2)NC1=O (stereo not shown) [Cyclo(Tyr-Leu)],-5.8,
C[C@H]1CC[C@]2(NC1)O[C@H]1C[C@H]3[C@@H]4CC[C@H]5C[C@@H](O)CC[C@]5(C)[C@H]4CC[C@]3(C)[C@H]1[C@@H]2C [Tomatidine (hydrochloride)],,0.4
CC1=C[C@]23C(=O)[C@@H](C=C(CO)[C@@H](O)[C@]2(O)[C@H]1O)[C@H]1[C@@H](C[C@H]3C)C1(C)C [Ingenol],5.5,
CC1=C(C=O)C(C)(C)C[C@H](O[C@@H]2O[C@H](CO)[C@@H](O)[C@H](O)[C@H]2O)C1 [Picrocrocin],-0.4,

Structure (SMILES),OC43 Inhibition rate [%],"OC43 Inhibition rate (OC43 Inhibition rate, 24 h) [%]"
COc1cc2cc(c1Cl)N(C)C(=O)C[C@H](OC(=O)[C@H](C)N(C)C(C)=O)[C@]1(C)O[C@H]1[C@H](C)[C@@H]1C[C@@](O)(NC(=O)O1)[C@H](OC)/C=C/C=C(\C)C2 [Maytansine],3.2,
CC(C)=CCC/C(C)=C/CC/C(C)=C/Cc1c(O)c2ccccc2oc1=O [Ferulenol],-1.1,
COC(=O)CC[C@@H](C)[C@H]1CC[C@H]2[C@@H]3[C@H](O)C[C@@H]4C[C@H](O)CC[C@]4(C)[C@H]3C[C@H](O)[C@]12C [Methyl cholate],-0.2,
C=C(CC[C@@H](C(=O)O)[C@H]1[C@H](O)C[C@@]2(C)C3=CC[C@H]4C(C)(C)[C@@H](O)CC[C@]4(C)C3=CC[C@]12C)C(C)C [Dehydrotumulosic acid],-1.5,
O=C(O)C1=CCCNC1 [Guvacine hydrochloride],-0.5,
CC[C@H](CC[C@@H](C)[C@H]1CC[C@H]2[C@@H]3CC=C4C[C@@H](O)CC[C@]4(C)[C@H]3CC[C@]12C)C(C)C [Beta-Sitosterol (purity>75%)],,-4.5
COc1ccc2cc3[n+](cc2c1O)CCc1cc2c(cc1-3)OCO2 [Berberrubine (chloride)],-0.4,
CC(=O)N1C[C@H](O)C[C@H]1C(=O)O [Oxaceprol],0.4,
"O=c1cc(-c2ccc(O)cc2)oc2cccc(O)c12 [4',5-Dihydroxyflavone]",19.4,
COc1cc(O)c2c(=O)cc(-c3ccc(O)c(O)c3)oc2c1 [Hydroxygenkwanin],17,
COc1cc(/C=C/C(=O)NCCc2ccc(O)cc2)ccc1O [N-trans-Feruloyltyramine],6.3,
"COc1ccc(CC(=O)O)cc1OC [3,4-Dimethoxyphenylacetic acid]",-0.2,
CCC(=O)c1c(O)cc(O)cc1O [Flopropione],1.3,
COc1c(O)c(C)cc2c1C(=O)c1c(O)cccc1C2=O [Obtusifolin],3.3,
COc1ccc(-c2oc3c(CC=C(C)C)c(O[C@@H]4O[C@H](CO)[C@@H](O)[C@H](O)[C@H]4O)cc(O)c3c(=O)c2O[C@@H]2O[C@@H](C)[C@H](O)[C@@H](O)[C@H]2O[C@@H]2OC[C@@H](O)[C@H](O)[C@H]2O)cc1 [Epimedin B],1,
N[C@@H](CS(=O)(=O)O)C(=O)O [L-Cysteic acid (monohydrate)],4.5,
COc1c(-c2ccc(O)c(O)c2)oc2cc(O)cc(O)c2c1=O [3-O-Methylquercetin],-0.7,
COC(=O)c1ccc(O)cc1 [Methyl Paraben],-3,
OC[C@H]1O[C@@](CO)(OC[C@@]2(OC[C@@]3(OC[C@@]4(OC[C@@]5(OC[C@@]6(OC[C@@]7(OC[C@@]8(O[C@H]9O[C@H](CO)[C@@H](O)[C@H](O)[C@H]9O)O[C@H](CO)[C@@H](O)[C@@H]8O)O[C@H](CO)[C@@H](O)[C@@H]7O)O[C@H](CO)[C@@H](O)[C@@H]6O)O[C@H](CO)[C@@H](O)[C@@H]5O)O[C@H](CO)[C@@H](O)[C@@H]4O)O[C@H](CO)[C@@H](O)[C@@H]3O)O[C@H](CO)[C@@H](O)[C@@H]2O)[C@@H](O)[C@@H]1O [Fructo-oligosaccharide DP9/GF8],-1,
COc1cc2oc(-c3ccccc3)cc(=O)c2c(O)c1O [Negletein],0.2,
O=C(O)C/C=C(\CC(=O)O)C(=O)O [Triglochinic acid],-0.3,

Structure (SMILES),OC43 Inhibition rate [%],"OC43 Inhibition rate (OC43 Inhibition rate, 24 h) [%]"
O=C[C@H](O)[C@@H](O)[C@H](O)CO (racemic) [DL-Xylose],,3.6
NC(=O)/C=C\C(=O)O [(Z)-4-Amino-4-oxobut-2-enoic acid],-0.2,
Cn1cnc(C[C@H](N)C(=O)O)c1 [1-Methyl-L-histidine],7.3,
CCC(C(=O)O)c1ccccc1 (stereo not shown) [2-Phenylbutanoic acid],-1.9,
COc1ccccc1/C=C/C=O [2-Methoxycinnamaldehyde],0.2,
"COc1cc(CCC(=O)O)cc(OC)c1OC [3-(3,4,5-Trimethoxyphenyl)propanoic acid]",-1.1,
CC12CC3OC4O[C@H](CO)[C@@H](O)[C@H](O)[C@H]4OC34CC1C4(COC(=O)c1ccccc1)C(=O)O2 (stereo partly shown) [Lactiflorin],2,
CC1=C(CO)C(=O)O[C@@H]([C@@H](C)[C@H]2CC[C@H]3[C@@H]4C[C@H]5O[C@]56[C@@H](O)C=CC(=O)[C@]6(C)[C@H]4CC[C@]23C)C1 [Withaferin A],-10.2,
CCOC(=O)/C=C/c1ccccc1 [Ethyl cinnamate],-1.2,
COc1ccc(/C=C/C(=O)O)cc1 [(E)-3-(4-Methoxyphenyl)acrylic acid],,1.2
"CC(=O)c1c(O)cccc1O [2,6-Dihydroxyacetophenone]",-2,
COC(=O)c1c[nH]c2ccccc12 [Methyl indole-3-carboxylate],0.5,
CC(C)=CCC/C(C)=C/CO [Geraniol],0.3,
"COC(=O)c1c(O)cc(O)cc1O [Methyl 2,4,6-trihydroxybenzoate]",0,
CC1(C)CC[C@]2(C(=O)O)CC[C@]3(C)C(=CC[C@@H]4[C@@]5(C)CC[C@H](O)[C@@](C)(CO)[C@@H]5CC[C@]43C)[C@@H]2C1 [Hederagenin],-3.7,
O=C1c2ccccc2C(=O)c2c(O)ccc(O)c21 [Quinizarin],-0.1,
CC1=CCC(O)(C(C)C)CC1 (stereo not shown) [Terpinen-4-ol],-0.7,
O=C(N[C@H](COC(=O)[C@H](Cc1ccccc1)NC(=O)c1ccccc1)Cc1ccccc1)c1ccccc1 [Asperphenamate],-0.3,
CC1(C)CC[C@]2(C(=O)O)[C@H](O)C[C@]3(C)C(=CC[C@@H]4[C@@]5(C)CC[C@H](O)C(C)(C)[C@@H]5CC[C@]43C)[C@@H]2C1 [Echinocystic acid],-2.7,

# Another view of some results above.
Structure (SMILES) | OC43 Inhibition rate [%] | OC43 Inhibition rate (OC43 Inhibition rate, 24 h) [%]
COC(=O)c1c[nH]c2ccccc12 [Methyl indole-3-carboxylate] | 0.5 | 
CC(C)=CCC/C(C)=C/CO [Geraniol] | 0.3 | 
COC(=O)c1c(O)cc(O)cc1O [Methyl 2,4,6-trihydroxybenzoate] | 0 | 
CC1(C)CC[C@]2(C(=O)O)CC[C@]3(C)C(=CC[C@@H]4[C@@]5(C)CC[C@H](O)[C@@](C)(CO)[C@@H]5CC[C@]43C)[C@@H]2C1 [Hederagenin] | -3.7 | 
O=C1c2ccccc2C(=O)c2c(O)ccc(O)c21 [Quinizarin] | -0.1 | 
